No constants are given. Whether binding was seen depends on the method and setting. Some entries that bind do so weakly or less than the wild type.
Molecular target: T1, Human CRP (Novagen) (human, UniProt P02741 19-224)
T1 construct: also called C-reactive protein
T1 sequence (looked up): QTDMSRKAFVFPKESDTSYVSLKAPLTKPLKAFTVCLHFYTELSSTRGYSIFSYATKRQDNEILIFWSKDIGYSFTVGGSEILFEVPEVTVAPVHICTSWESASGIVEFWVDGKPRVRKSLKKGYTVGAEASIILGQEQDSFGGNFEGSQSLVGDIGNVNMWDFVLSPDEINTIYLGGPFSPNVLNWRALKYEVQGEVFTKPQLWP
Test: Bead Blot of library beads loaded from CRP-spiked whole blood, detected with an anti-CRP antibody, confirmed by re-incubation

binding: binds
B1: Leu-Gly-Thr-Tyr-Ile-Ala (SEQ ID NO: 1), hexamer peptide ligand on a Toyopearl 650 M amino library bead (peptide)
peptide: LGTYIA
